These are yes or no findings as the source states them, for the method shown. In cells and extracts the contact can be indirect. Some entries that bind do so weakly or less than the wild type. Sequences can lack the tags named with a protein.
T1: nLuc-HAT1 (35S:nLuc-HAT1) (Arabidopsis thaliana) (UniProt P46600)
T1 sequence: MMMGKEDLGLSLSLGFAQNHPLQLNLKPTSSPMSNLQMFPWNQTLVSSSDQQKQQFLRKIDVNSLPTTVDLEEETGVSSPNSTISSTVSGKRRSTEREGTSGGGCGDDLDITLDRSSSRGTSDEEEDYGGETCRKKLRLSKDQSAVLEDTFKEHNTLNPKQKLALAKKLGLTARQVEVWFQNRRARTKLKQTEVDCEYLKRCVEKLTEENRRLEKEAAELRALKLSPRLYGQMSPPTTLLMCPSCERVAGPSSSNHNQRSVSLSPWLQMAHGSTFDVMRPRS

T2: HAT1-GFP (pHAT1:HAT1-GFP) (Arabidopsis thaliana) (UniProt P46600)
T2 sequence: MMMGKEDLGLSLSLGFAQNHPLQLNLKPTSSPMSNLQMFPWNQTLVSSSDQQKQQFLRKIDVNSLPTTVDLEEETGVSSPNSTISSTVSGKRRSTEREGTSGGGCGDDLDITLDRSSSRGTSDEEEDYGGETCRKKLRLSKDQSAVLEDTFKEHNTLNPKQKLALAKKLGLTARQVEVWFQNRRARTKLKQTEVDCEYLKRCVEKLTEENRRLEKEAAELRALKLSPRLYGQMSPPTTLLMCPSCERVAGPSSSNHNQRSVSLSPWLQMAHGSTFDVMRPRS


Experiments:
[1] = target: T1, nLuc-HAT1 (35S:nLuc-HAT1) (Arabidopsis thaliana); experiment: split reporter
[2] = target: T2, HAT1-GFP (pHAT1:HAT1-GFP) (Arabidopsis thaliana); experiment: co-IP

| binding [1] | binding [2] | Binder |
| --- | --- | --- |
| binds |  | cLuc-CAMTA3 (35S:cLuc-CAMTA3) (protein, UniProt Q8GSA7 1-1032) MAEARRFSPVHELDVGQILSEARHRWLRPPEICEILQNYQRFQISTEPPTTPSSGSVFMFDRKVLRYFRKDGHNWRKKKDGKTVKEAHERLKAGSVDVLHCYYAHGQDNENFQRRSYWLLQEELSHIVFVHYLEVKGSRVSTSFNRMQRTEDAARSPQETGDALTSEHDGYASCSFNQNDHSNHSQTTDSASVNGFHSPELEDAESAYNQHGSSTAYSHQELQQPATGGNLTGFDPYYQISLTPRDSYQKELRTIPVTDSSIMVDKSKTINSPGVTNGLKNRKSIDSQTWEEILGNCGSGVEALPLQPNSEHEVLDQILESSFTMQDFASLQESMVKSQNQELNSGLTSDRTVWFQGQDMELNAISNLASNEKAPYLSTMKQHLLHGALGEEGLKKMDSFNRWMSKELGDVGVIADANESFTQSSSRTYWEEVESEDGSNGHNSRRDMDGYVMSPSLSKEQLFSINDFSPSWAYVGCEVVVFVTGKFLKTREETEIGEWSCMFGQTEVPADVISNGILQCVAPMHEAGRVPFYVTCSNRLACSEVREFEYKVAESQVFDREADDESTIDILEARFVKLLCSKSENTSPVSGNDSDLSQLSEKISLLLFENDDQLDQMLMNEISQENMKNNLLQEFLKESLHSWLLQKIAEGGKGPSVLDEGGQGVLHFAASLGYNWALEPTIIAGVSVDFRDVNGWTALHWAAFFGRERIIGSLIALGAAPGTLTDPNPDFPSGSTPSDLAYANGHKGIAGYLSEYALRAHVSLLSLNDKNAETVEMAPSPSSSSLTDSLTAVRNATQAAARIHQVFRAQSFQKKQLKEFGDKKLGMSEERALSMLAPKTHKSGRAHSDDSVQAAAIRIQNKFRGYKGRKDYLITRQRIIKIQAHVRGYQFRKNYRKIIWSVGVLEKVILRWRRKGAGLRGFKSEALVEKMQDGTEKEEDDDFFKQGRKQTEDRLQKALARVKSMVQYPEARDQYRRLLNVVNDIQESKVEKALENSEATCFDDDDDLIDIEALLEDDDTLMLPMSSSLWTS |
|  | binds | CAMTA3, endogenous (protein, UniProt Q8GSA7 1-1032) MAEARRFSPVHELDVGQILSEARHRWLRPPEICEILQNYQRFQISTEPPTTPSSGSVFMFDRKVLRYFRKDGHNWRKKKDGKTVKEAHERLKAGSVDVLHCYYAHGQDNENFQRRSYWLLQEELSHIVFVHYLEVKGSRVSTSFNRMQRTEDAARSPQETGDALTSEHDGYASCSFNQNDHSNHSQTTDSASVNGFHSPELEDAESAYNQHGSSTAYSHQELQQPATGGNLTGFDPYYQISLTPRDSYQKELRTIPVTDSSIMVDKSKTINSPGVTNGLKNRKSIDSQTWEEILGNCGSGVEALPLQPNSEHEVLDQILESSFTMQDFASLQESMVKSQNQELNSGLTSDRTVWFQGQDMELNAISNLASNEKAPYLSTMKQHLLHGALGEEGLKKMDSFNRWMSKELGDVGVIADANESFTQSSSRTYWEEVESEDGSNGHNSRRDMDGYVMSPSLSKEQLFSINDFSPSWAYVGCEVVVFVTGKFLKTREETEIGEWSCMFGQTEVPADVISNGILQCVAPMHEAGRVPFYVTCSNRLACSEVREFEYKVAESQVFDREADDESTIDILEARFVKLLCSKSENTSPVSGNDSDLSQLSEKISLLLFENDDQLDQMLMNEISQENMKNNLLQEFLKESLHSWLLQKIAEGGKGPSVLDEGGQGVLHFAASLGYNWALEPTIIAGVSVDFRDVNGWTALHWAAFFGRERIIGSLIALGAAPGTLTDPNPDFPSGSTPSDLAYANGHKGIAGYLSEYALRAHVSLLSLNDKNAETVEMAPSPSSSSLTDSLTAVRNATQAAARIHQVFRAQSFQKKQLKEFGDKKLGMSEERALSMLAPKTHKSGRAHSDDSVQAAAIRIQNKFRGYKGRKDYLITRQRIIKIQAHVRGYQFRKNYRKIIWSVGVLEKVILRWRRKGAGLRGFKSEALVEKMQDGTEKEEDDDFFKQGRKQTEDRLQKALARVKSMVQYPEARDQYRRLLNVVNDIQESKVEKALENSEATCFDDDDDLIDIEALLEDDDTLMLPMSSSLWTS |

— paper doi:10.1101/2024.08.29.610327
